This note sets out measurements from patent CN109897110A.

Chains of the proteins cited; added tags and fusions are not shown. Lines headed by an entry give the natural chain unless they say otherwise; changes in a name come on top.
UniProt Q8NBP7: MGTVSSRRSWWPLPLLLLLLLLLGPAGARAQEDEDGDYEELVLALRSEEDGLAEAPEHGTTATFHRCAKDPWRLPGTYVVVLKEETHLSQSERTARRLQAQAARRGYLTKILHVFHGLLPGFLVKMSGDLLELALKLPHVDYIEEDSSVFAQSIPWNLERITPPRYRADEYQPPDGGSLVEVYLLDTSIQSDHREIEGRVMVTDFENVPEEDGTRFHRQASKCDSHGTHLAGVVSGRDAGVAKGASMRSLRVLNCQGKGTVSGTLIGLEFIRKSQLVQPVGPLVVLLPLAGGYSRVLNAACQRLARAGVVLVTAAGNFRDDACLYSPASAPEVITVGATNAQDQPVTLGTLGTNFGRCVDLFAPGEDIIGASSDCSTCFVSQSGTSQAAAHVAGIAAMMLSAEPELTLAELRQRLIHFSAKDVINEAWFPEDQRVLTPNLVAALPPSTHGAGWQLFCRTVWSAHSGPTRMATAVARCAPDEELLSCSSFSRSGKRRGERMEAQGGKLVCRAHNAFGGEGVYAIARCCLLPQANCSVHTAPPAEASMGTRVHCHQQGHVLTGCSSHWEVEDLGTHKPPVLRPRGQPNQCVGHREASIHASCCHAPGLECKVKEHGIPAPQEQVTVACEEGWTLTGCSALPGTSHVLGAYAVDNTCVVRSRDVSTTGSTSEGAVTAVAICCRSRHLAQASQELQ

These are yes or no findings as the source states them, for the method shown. Some results given as binding are weak or reduced against the parent protein; the word gives no strength.

The target of assay [1] is 人PCSK9抗原多肽 (前蛋白转化酶枯草溶菌素9, PCSK9) (human) (UniProt Q8NBP7). In words: ProteOn (SPR), PCSK9 immobilised on chip.
Assay [2] shares this target. In words: ELISA, PCSK9 coated (100 ng), purified nanobody, anti-HA detection.

B1: PCSK9纳米抗体 (VHH, not shown: small tags and cut ends)
VHH: ESGGGSVQAGGSLRLSCTVSGYTYSSNCMGWFRQAPGKEHEGVASIYIGGGSTYYADSVKGRFTISQDNAKNTVYLQMNSLKPEDTAMYYCAVGCQGLVDFGYWDQGTQVTVSS
Regarding B1, the binding result in assay [1] and in assay [2] was “binds” each time.
